Source: PubChem BioAssay AID1224826 (NIAID, 2016)
Test: 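Knock-downs that raise or lower Tnf reporter signal after endotoxin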 (primary screen). System: RAW264.7 G9 macrophages from mouse bearing reporters for p65 (GFP) and the Tnf promoter (mCherry). Knock-down reagent: siRNA pool against mouse genes, 100 nM. Duration: 16 h of LPS stimulation, after 2 days of siRNA transfection. Challenge: bacterial lipopolysaccharide (Salmonella minnesota R595), 10 ng/ml. Read-out: 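Imaged Tnf reporter mCherry in nuclei, minus background, normalised per plate to the median and expressed as robust z-scores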. Reading the numbers: Tnf reporter robust z-score: higher = stronger Tnf promoter reporter signal after LPS; Tnf reporter intensity: higher = stronger Tnf promoter reporter signal. Active means: 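Called active when robust z-score is at most -1.3, matching the median of the Tlr4 knock-down control, or over 3; control wells and wells with under 50 cells never active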. Calls: active = Tnf reporter clearly lowered or raised; inactive = no clear change in Tnf reporter.
Here is an unselected part of about 17,000 reagents tested. Of all reagents, about 1,110 (6.6%) are marked active. 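Active means lowered or raised reporter signal; replicate intensities are raw and not normalised per plate.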 Reagents against one gene are numbered here. No sequences are given here.

The opening 2 entries, to show the layout:
Gene | reagent | Tnf reporter robust z-score | fewer than 50 cells in well | Tnf reporter intensity, replicate 1 | Tnf reporter intensity, replicate 2 | Outcome
Pstpip2 (proline-serine-threonine phosphatase-interacting protein 2) | 1 | -0.63 | enough cells in well | 127 | 127 | inactive
Pstpip2 (proline-serine-threonine phosphatase-interacting protein 2) | 2 | -0.22 | enough cells in well | 219 | 186 | inactive

Results, from the first entry:
Gene | reagent | Tnf reporter robust z-score | fewer than 50 cells in well | Tnf reporter intensity, replicate 1 | Tnf reporter intensity, replicate 2 | Outcome
Pstpip2 (proline-serine-threonine phosphatase-interacting protein 2) | 1 | -0.63 | enough cells in well | 127 | 127 | inactive
Pstpip2 (proline-serine-threonine phosphatase-interacting protein 2) | 2 | -0.22 | enough cells in well | 219 | 186 | inactive
Tdpoz4 (TD and POZ domain containing 4) | 1 | – | fewer than 50 cells per well; well left out of calls | 62 | 47.2 | inactive
Ufd1 (ubiquitin recognition factor in ER-associated degradation 1) | 1 | 2.57 | enough cells in well | 433 | 425 | inactive
Slc24a2 | 1 | 1.25 | enough cells in well | 127 | 162 | inactive
Eif3e (eukaryotic translation initiation factor 3, subunit E) | 1 | -1.38 | enough cells in well | 122 | 122 | active
Arhgef25 (Rho guanine nucleotide exchange factor 25) | 1 | -1.28 | enough cells in well | 117 | 87.8 | inactive
E230015B07Rik (RIKEN cDNA E230015B07 gene) | 1 | 1.64 | enough cells in well | 289 | 194 | inactive
Cd207 (CD207 antigen) | 1 | -1.17 | enough cells in well | 97.4 | 109 | inactive
Fgf15 (fibroblast growth factor 15) | 1 | 0.48 | enough cells in well | 298 | 274 | inactive
Pak3 (p21 (RAC1) activated kinase 3) | 1 | -1.02 | enough cells in well | 119 | 106 | inactive
Adprh (ADP-ribosylarginine hydrolase) | 1 | -0.33 | enough cells in well | 195 | 154 | inactive
Dvl3 (dishevelled segment polarity protein 3) | 1 | 0.19 | enough cells in well | 238 | 228 | inactive
Serpinb9b (serine (or cysteine) peptidase inhibitor, clade B, member 9b) | 1 | -0.92 | enough cells in well | 71.5 | 72.4 | inactive
Hmgn2 (high mobility group nucleosomal binding domain 2) | 1 | -0.17 | enough cells in well | 216 | 185 | inactive
Tspo (translocator protein) | 1 | 2.55 | enough cells in well | 264 | 309 | inactive
Crct1 (cysteine-rich C-terminal 1) | 1 | – | fewer than 50 cells per well; well left out of calls | 117 | 28.3 | inactive
Nr1h2 (nuclear receptor subfamily 1, group H, member 2) | 1 | -1.96 | enough cells in well | 90.6 | 75.6 | active
Anxa6 (annexin A6) | 1 | 0.58 | enough cells in well | 221 | 180 | inactive
Cfap36 (cilia and flagella associated protein 36) | 1 | – | fewer than 50 cells per well; well left out of calls | 187 | 46.5 | inactive
Pxylp1 (2-phosphoxylose phosphatase 1) | 1 | -0.55 | enough cells in well | 96.4 | 132 | inactive
Gm9871 (predicted gene 9871) | 1 | 0.08 | enough cells in well | 289 | 55.1 | inactive
Or5p79 (olfactory receptor family 5 subfamily P member 79) | 1 | – | fewer than 50 cells per well; well left out of calls | 137 | 85.5 | inactive
Rptn (repetin) | 1 | -1.32 | enough cells in well | 72.2 | 69.9 | active
